Percent effect of library compounds

Amino acid sequences for entries named in this document (tags omitted).
UniProt I6X8D2, whole entry: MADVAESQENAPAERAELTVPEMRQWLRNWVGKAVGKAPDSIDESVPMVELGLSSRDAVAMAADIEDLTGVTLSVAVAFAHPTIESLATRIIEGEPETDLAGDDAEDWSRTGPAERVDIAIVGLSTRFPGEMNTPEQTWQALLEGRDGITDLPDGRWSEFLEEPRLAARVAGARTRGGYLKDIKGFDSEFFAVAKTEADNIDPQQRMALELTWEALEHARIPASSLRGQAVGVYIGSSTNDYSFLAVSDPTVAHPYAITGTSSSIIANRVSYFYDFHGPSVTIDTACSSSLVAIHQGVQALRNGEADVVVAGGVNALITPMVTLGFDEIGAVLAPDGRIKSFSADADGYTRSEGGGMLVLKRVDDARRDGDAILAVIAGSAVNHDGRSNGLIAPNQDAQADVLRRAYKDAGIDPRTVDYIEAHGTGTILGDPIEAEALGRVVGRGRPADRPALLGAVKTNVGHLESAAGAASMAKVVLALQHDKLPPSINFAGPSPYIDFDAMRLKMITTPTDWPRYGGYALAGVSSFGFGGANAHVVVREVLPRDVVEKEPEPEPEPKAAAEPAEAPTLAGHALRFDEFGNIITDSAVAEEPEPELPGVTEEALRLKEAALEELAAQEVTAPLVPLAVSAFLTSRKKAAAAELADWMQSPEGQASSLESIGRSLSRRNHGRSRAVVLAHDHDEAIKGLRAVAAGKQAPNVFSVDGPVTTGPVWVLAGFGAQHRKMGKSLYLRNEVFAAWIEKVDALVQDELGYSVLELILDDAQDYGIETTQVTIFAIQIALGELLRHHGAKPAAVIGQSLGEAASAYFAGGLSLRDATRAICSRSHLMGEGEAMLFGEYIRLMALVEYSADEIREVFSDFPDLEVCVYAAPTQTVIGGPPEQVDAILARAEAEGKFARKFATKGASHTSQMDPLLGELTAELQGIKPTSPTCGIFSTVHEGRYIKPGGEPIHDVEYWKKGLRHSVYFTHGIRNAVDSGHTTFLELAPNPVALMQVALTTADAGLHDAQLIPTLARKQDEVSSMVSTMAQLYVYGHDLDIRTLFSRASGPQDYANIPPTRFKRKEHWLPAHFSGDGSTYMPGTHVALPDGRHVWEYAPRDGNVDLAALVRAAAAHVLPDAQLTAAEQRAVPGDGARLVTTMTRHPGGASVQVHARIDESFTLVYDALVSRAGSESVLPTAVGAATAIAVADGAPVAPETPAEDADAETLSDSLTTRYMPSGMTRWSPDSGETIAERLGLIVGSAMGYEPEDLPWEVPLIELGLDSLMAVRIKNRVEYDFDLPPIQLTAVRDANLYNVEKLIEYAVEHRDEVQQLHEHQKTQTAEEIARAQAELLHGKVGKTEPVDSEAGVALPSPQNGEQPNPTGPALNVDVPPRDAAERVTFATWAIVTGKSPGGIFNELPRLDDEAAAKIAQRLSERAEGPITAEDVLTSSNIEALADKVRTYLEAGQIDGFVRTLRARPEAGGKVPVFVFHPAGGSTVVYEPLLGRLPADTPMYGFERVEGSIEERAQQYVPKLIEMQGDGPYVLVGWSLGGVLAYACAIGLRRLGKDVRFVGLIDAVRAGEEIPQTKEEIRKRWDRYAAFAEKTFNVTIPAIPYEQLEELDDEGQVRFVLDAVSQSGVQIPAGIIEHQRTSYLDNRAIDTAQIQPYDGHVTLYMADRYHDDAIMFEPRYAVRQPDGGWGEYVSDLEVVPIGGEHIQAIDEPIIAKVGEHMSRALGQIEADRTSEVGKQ
UniProt P9WNZ1, whole entry: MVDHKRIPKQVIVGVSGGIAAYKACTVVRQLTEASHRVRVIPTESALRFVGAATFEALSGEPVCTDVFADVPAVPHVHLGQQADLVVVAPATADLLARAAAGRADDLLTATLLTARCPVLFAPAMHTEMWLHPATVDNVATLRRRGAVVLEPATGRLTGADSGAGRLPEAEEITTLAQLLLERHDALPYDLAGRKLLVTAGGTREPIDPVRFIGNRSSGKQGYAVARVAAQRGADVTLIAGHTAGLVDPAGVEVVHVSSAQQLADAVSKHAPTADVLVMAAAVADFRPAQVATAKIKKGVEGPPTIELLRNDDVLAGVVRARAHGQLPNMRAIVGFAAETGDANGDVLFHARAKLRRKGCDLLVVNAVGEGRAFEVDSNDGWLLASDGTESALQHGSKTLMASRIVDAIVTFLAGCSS
UniProt P9WFT3, whole entry: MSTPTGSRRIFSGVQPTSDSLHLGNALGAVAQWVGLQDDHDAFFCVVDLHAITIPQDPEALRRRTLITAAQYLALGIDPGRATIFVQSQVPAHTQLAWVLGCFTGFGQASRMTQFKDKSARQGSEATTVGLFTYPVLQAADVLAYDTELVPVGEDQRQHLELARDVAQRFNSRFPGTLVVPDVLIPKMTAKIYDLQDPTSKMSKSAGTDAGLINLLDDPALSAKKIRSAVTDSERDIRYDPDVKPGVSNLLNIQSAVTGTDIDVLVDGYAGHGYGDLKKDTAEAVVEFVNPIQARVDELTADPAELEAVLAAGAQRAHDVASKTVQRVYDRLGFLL

Pks13 thioesterase: 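Enzyme assay of the thioesterase domain of polyketide synthase 13; the read-out is not stated. Target: Polyketide synthase Pks13, Mycobacterium tuberculosis (UniProt I6X8D2). Compounds at 30 µM. Higher reads as stronger inhibition (inferred from which compounds were picked for retests). Size under these conditions: about 67,000 compounds, about 300 of them at 50% or above in at least one test.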
CoaBC: 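Coenzyme A biosynthesis protein CoaBC, Mycobacterium tuberculosis (UniProt P9WNZ1). Enzyme assay of CoaBC with a phosphate dye (Biomol Green) read at 650 nm. Concentration: 30 µM. Direction is inferred from only a few compounds that gave an IC50; most scored high, so higher reads as stronger inhibition. Most strong results did not repeat in a second test. About 67,000 compounds were tested under these conditions; 0.06% (about 40) showed 50% or more at least once.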
Leishmania in macrophages: 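Cell assay of Leishmania donovani living inside macrophages; the read-out is not stated. Compounds at 30 µM. Higher reads as stronger inhibition (inferred: compounds with an IC50 in retests scored well above the rest). Of about 69,000 compounds tested this way, about 1,000 (1.5%) reached 50% or more in at least one test.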
MtTrpRS: 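Enzyme assay of tryptophanyl-tRNA synthetase; the read-out is not stated. Target: Tryptophan-tRNA ligase, Mycobacterium tuberculosis (UniProt P9WFT3). Compounds at 10 µM. Direction is not recorded; retested compounds ran higher, which suggests that high means inhibition. About 65,000 compounds were tested under these conditions; 0.098% (about 64) showed 50% or more at least once.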

Results are given as percent effect.
The controls that fix the scale are not given in the record; negative values are as filed.
Compounds were drawn at random from those tested, without regard to their results.

CN1CCCN(C(=O)c2csc3nc(-c4ccc(Cl)cc4)cn23)CC1 gave Pks13 thioesterase: 0.61%; CoaBC: 3.944%; Leishmania in macrophages: 33.49%; MtTrpRS: -4.603%. For Cc1nc[nH]c1-c1nccn1CCN(C)S(C)(=O)=O the result was Pks13 thioesterase: -17.72%; CoaBC: 2.886%; Leishmania in macrophages: 18.48%; MtTrpRS: -1.498%. Result for O=C(N1CCCC1)N1Cc2nccn2CC(CN2CCCC2)C1.O=C(O)C(F)(F)F (stereo unspecified) was Leishmania in macrophages: 2.9%. CC(C)(C)c1ccc(S(=O)(=O)CCNC(=O)c2cnccn2)cc1 read Pks13 thioesterase: -13.53%; CoaBC: 0.4016%; Leishmania in macrophages: 26.51%; MtTrpRS: 13.19%. CCn1cc(S(=O)(=O)N2CCC(C3CCCCN(C)C3=O)CC2)c(C)n1 (stereo unspecified) gave Pks13 thioesterase: -7.447%; CoaBC: 8.676%; Leishmania in macrophages: -53.16%; MtTrpRS: 9.051%. Result for CCC(=O)Nc1cccc(OCC(=O)N(C)Cc2nccn2CC)c1 was Pks13 thioesterase: -20.24%; CoaBC: 6.79%; Leishmania in macrophages: 14.45%; MtTrpRS: -6.539%. For O=C(O)C(F)(F)F.O=C(O)c1c(-c2cncnc2)ncc2c1CCN(CC1CCOC1)C2 (stereo unspecified) the result was Leishmania in macrophages: 22.16%. For CC1(c2ccccc2)CCCN(C(=O)c2ccn3nnnc3c2)C1 (stereo unspecified) the result was Pks13 thioesterase: -0.04613%; CoaBC: 3.676%; Leishmania in macrophages: 8.018%; MtTrpRS: -4.48%.

For Cc1ccc([C@@H]2CN(C(=O)c3cc(C)no3)C[C@H]2NC(=O)C2CC2)cc1 the result was Pks13 thioesterase: -1.569%; CoaBC: 8.73%; Leishmania in macrophages: 9.935%; MtTrpRS: 3.159%. Result for CN(C)CC1CSCCCN1C(=O)c1ccsc1 (stereo unspecified) was Pks13 thioesterase: -14.24%; CoaBC: 3.557%; Leishmania in macrophages: 5.465%; MtTrpRS: -0.6785%. Cn1ccnc1CN1CCN(Cc2noc(C3CC3)n2)CC1 gave Pks13 thioesterase: 2.32%; CoaBC: 0.2625%; Leishmania in macrophages: 24.13%; MtTrpRS: -3.324%. CN1CCC2(CC1)CNC(=O)c1ccccc1O2 gave Pks13 thioesterase: -33.2%; CoaBC: -3.611%; Leishmania in macrophages: 0.1255%; MtTrpRS: 1.421%. CC(NC(=O)CCNC(=O)c1ccoc1)c1ccccc1 (stereo unspecified) gave Pks13 thioesterase: 8.413%; CoaBC: -1.238%; Leishmania in macrophages: -7.291%; MtTrpRS: -2.835%. O=C(O)C(F)(F)F.[H][C@]12CCN(C(=O)NCC(C)C)CC[C@@]1([H])S(=O)(=O)N(Cc1cccnc1)C2 gave Leishmania in macrophages: 21.74%. COc1ccc(C)cc1C(=O)NC(CC(=O)O)c1cccs1 (stereo unspecified) read Pks13 thioesterase: -7.229%; CoaBC: 6.489%; Leishmania in macrophages: 16.58%; MtTrpRS: 2.812%. With CCOCC(=O)N1Cc2nccn2CC(CN2CCCC2)C1 (stereo unspecified) the screen gave Pks13 thioesterase: -8.635%; CoaBC: 1.523%; MtTrpRS: -6.667%.

Cc1ccc(Nc2nccc(C3CN(CC(N)=O)C3)n2)nc1 read Pks13 thioesterase: -39.12%; CoaBC: 0%; Leishmania in macrophages: 33.39%; MtTrpRS: -0.08361%. Result for N#Cc1ccc(C(=O)N2CC[C@H]3[C@H]2CCN3CC2CCOCC2)cc1 was Pks13 thioesterase: -53.99%; CoaBC: 0.1287%; MtTrpRS: 11.48%. Result for CCCNC(=O)NC(=O)CNC(C)(C)c1ccc2c(c1)OCO2 was Pks13 thioesterase: -17.44%; CoaBC: 10.31%; Leishmania in macrophages: 11.01%; MtTrpRS: -5.677%. With COc1cccc(OC2CN(C(=O)c3ccnc(OC)c3)C2)c1 the screen gave Pks13 thioesterase: -14.7%; CoaBC: 1.716%; Leishmania in macrophages: 2.733%; MtTrpRS: 3.086%. O=C(CN(CC(O)c1ccc(F)cc1)C1CC1)NC(C1CC1)C1CC1 (stereo unspecified) gave Pks13 thioesterase: -9.912%; CoaBC: -1.921%; Leishmania in macrophages: -27.03%; MtTrpRS: -0.6427%. N[C@H]1CN(C(=O)c2cnc3cc(Cl)ccc3c2O)C[C@@H]1C1CC1 gave Pks13 thioesterase: -7.627%; CoaBC: -0.8537%; Leishmania in macrophages: 38.33%; MtTrpRS: 4.901%. For Cc1nc(NC2CC2)c2c(n1)c(C)nn2C the result was Pks13 thioesterase: -6.145%; CoaBC: -2.604%; Leishmania in macrophages: -31.01%; MtTrpRS: 2.184%. CSCC(=O)N1CCOC(c2nc(C(C)C)n[nH]2)C1 (stereo unspecified) read Pks13 thioesterase: 2.26%; CoaBC: 0.1215%; Leishmania in macrophages: -10.46%; MtTrpRS: -0.4823%.

CCN(CC1CN(Cc2ccccn2)CCO1)c1cccnn1 (stereo unspecified) read Pks13 thioesterase: -1.061%; CoaBC: -24.38%; Leishmania in macrophages: 13.99%; MtTrpRS: -0.7965%. Result for Cc1cc(NC(=O)CNCc2csc(-c3cnccn3)n2)ccc1Cl was Pks13 thioesterase: -33.02%; CoaBC: 7.258%; Leishmania in macrophages: 25.93%; MtTrpRS: -3.638%. With COCCCC1(C(=O)O)CCCN(Cc2cc3c(cc2C)OCCO3)C1 (stereo unspecified) the screen gave Pks13 thioesterase: -34.06%; CoaBC: 10.07%; Leishmania in macrophages: 26.1%; MtTrpRS: -1.966%. With O=C(CSc1nnc2n1N=CN(c1ccccc1)C2)c1ccccc1 the screen gave Pks13 thioesterase: -1.666%; CoaBC: 0.2237%; Leishmania in macrophages: -3.448%; MtTrpRS: 3.997%. With Cc1cccc(OCC(=O)N(Cc2ccncc2)C2CC2)c1 the screen gave Pks13 thioesterase: -13.09%; CoaBC: -3.97%; Leishmania in macrophages: -39.03%; MtTrpRS: -1.713%.

Some entries from above, unchanged:

CCCNC(=O)NC(=O)CNC(C)(C)c1ccc2c(c1)OCO2 gave Pks13 thioesterase: -17.44%; CoaBC: 10.31%; Leishmania in macrophages: 11.01%; MtTrpRS: -5.677%.
CC(NC(=O)CCNC(=O)c1ccoc1)c1ccccc1 (stereo unspecified) gave Pks13 thioesterase: 8.413%; CoaBC: -1.238%; Leishmania in macrophages: -7.291%; MtTrpRS: -2.835%.

From ChEMBL document CHEMBL3988442, “University of Dundee, Small-Polar-MMV Screening Library” (2021).